PubChem BioAssay AID1259254 | NCATS, 2017
Here is a random part of about 59,000 reagents. Of all reagents, about 1,550 (2.6%) were called active. 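G2 share is only a proxy for re-replication; each gene was hit by three separate siRNAs, and active genes were retested.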 Reagents against one gene are numbered here. Not all columns of the deposit are shown. Not given: the amount of reagent.

- Assay: 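Finding genes that stop cells copying their DNA twice in one cycle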 (primary screen)
- Cell system: human HCT116 colorectal cancer cells
- Reagents: single siRNA against human genes
- Timing: 3 days
- Measured: 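Nuclei stained with Hoechst and imaged; cell-cycle phase assigned by DNA content; G2 share scaled per plate, non-targeting siRNA 0%, GMNN siRNA 100%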
- Direction: G2 robust z-score: higher = more G2 cells, more excess DNA replication
- Hit rule: 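Active siRNAs have a G2 robust z of 5 or more median absolute deviations over the median, which in these data means about 38% or higher of GMNN control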

ABCB6 (ATP binding cassette subfamily B member 6 (LAN blood group)) #1: G2 robust z-score = 0.349; outcome = inactive
ABCB6 (ATP binding cassette subfamily B member 6 (LAN blood group)) #2: G2 robust z-score = 0.477; outcome = inactive
ABCB6 (ATP binding cassette subfamily B member 6 (LAN blood group)) #3: G2 robust z-score = -0.56; outcome = inactive
VSTM2B-DT (VSTM2B divergent transcript) #1: G2 robust z-score = -0.954; outcome = inactive
VSTM2B-DT (VSTM2B divergent transcript) #2: G2 robust z-score = 0.0158; outcome = inactive
VSTM2B-DT (VSTM2B divergent transcript) #3: G2 robust z-score = -0.318; outcome = inactive
ALG6 (ALG6 alpha-1,3-glucosyltransferase) #1: G2 robust z-score = -0.358; outcome = inactive
ALG6 (ALG6 alpha-1,3-glucosyltransferase) #2: G2 robust z-score = -1.19; outcome = inactive
ALG6 (ALG6 alpha-1,3-glucosyltransferase) #3: G2 robust z-score = 0.87; outcome = inactive
ADM2 (adrenomedullin 2) #1: G2 robust z-score = 0.518; outcome = inactive
ADM2 (adrenomedullin 2) #2: G2 robust z-score = -0.553; outcome = inactive
ADM2 (adrenomedullin 2) #3: G2 robust z-score = 0.219; outcome = inactive

Copied from above (2 entries):
ABCB6 (ATP binding cassette subfamily B member 6 (LAN blood group)) #3: G2 robust z-score = -0.56; outcome = inactive
VSTM2B-DT (VSTM2B divergent transcript) #1: G2 robust z-score = -0.954; outcome = inactive
